One assay concerns the target T1, D(4) dopamine receptor (Rattus norvegicus, UniProt P30729).
T1 sequence (P30729 whole entry): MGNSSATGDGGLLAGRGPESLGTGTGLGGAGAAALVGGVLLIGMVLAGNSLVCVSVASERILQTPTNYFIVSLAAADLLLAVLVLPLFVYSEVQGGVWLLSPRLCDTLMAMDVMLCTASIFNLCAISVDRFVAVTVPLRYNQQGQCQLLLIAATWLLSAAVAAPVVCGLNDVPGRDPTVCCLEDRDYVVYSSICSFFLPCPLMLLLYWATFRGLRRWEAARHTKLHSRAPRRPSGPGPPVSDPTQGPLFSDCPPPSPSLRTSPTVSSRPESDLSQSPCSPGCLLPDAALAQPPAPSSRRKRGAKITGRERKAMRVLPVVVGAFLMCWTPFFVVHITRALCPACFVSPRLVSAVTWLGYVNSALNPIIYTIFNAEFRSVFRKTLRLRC

Protein sequences, listed by entry. Tags and fused reporters are not part of them.
UniProt P19020, whole entry: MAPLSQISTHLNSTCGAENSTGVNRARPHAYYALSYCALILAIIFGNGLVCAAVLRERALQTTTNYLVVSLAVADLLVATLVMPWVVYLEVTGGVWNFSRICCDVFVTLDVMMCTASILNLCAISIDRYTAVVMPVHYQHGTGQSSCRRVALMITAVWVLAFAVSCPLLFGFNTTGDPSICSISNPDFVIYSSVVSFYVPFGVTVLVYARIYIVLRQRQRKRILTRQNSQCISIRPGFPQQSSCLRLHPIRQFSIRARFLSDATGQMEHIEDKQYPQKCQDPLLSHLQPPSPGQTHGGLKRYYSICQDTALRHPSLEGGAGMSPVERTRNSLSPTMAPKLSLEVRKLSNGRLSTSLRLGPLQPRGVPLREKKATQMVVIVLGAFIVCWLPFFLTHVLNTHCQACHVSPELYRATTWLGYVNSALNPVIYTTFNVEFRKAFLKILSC

The next assay deals with D(3) dopamine receptor (Rattus norvegicus, UniProt P19020).

Consider `OCCOCCN1CCN(C2=Nc3ccccc3Sc3ccccc32)CC1` [2-[2-(4-dibenzo[b,f][1,4]thiazepin-11-ylpiperazin-1-yl)ethoxy]ethanol], for which the Ki (in general, the dissociation constant of the complex between target and ligand, obtained from inhibition or displacement) on D(4) dopamine receptor is 2 µM; on D(3) dopamine receptor, 0.34 µM.

Consider `CSc1ccc2c(c1)N(CC[C@@H]1CCCCN1C)c1ccccc1S2` [10-[2-(1-Methyl-piperidin-2-yl)-ethyl]-2-methylsulfanyl-10H-phenothiazine (thioridazine)], for which the results for the Ki at D(4) dopamine receptor and on D(3) dopamine receptor were 0.01 µM and 0.0023 µM, respectively.

Source of the values: BindingDB's records for PubMed 11171942 (University of Reading, 2001).
